{
  "source": "patent US20230220395A1",
  "about": "“METHODS AND COMPOSITIONS FOR TREATMENT OF AGE-RELATED MACULAR DEGENERATION” (University of Massachusetts, priority 2020, published 2023)",
  "format_in_all_cases": "in vivo, mouse",
  "key": {"^rodTsc1^−/− mice [1]": {"test_system": "^rodTsc1^−/− mice", "test": "Immunofluorescence for AMD related markers ApoB, ApoE, CFH, C3 on retinal sections of mice fed DHA diet", "settings": "DHA diet from weaning onwards until 6M"}, "^rodTsc1^−/− mice [2]": {"test_system": "^rodTsc1^−/− mice", "test": "RPE polynucleation and cell size quantification in mice fed DHA diet", "settings": "DHA diet from weaning onwards until 6M"}, "^rodTsc1^−/− mice [3]": {"test_system": "^rodTsc1^−/− mice", "test": "Analysis of POS clearance by the RPE in mice fed DHA enriched diet"}, "control wild-type mice": {"test_system": "control wild-type mice", "test": "Retinal lipid profiling after DHA feeding, control wild-type mice", "settings": "to a similar extent as loss of S6K1 expression"}, "^rodTsc1^−/− mice [4]": {"test_system": "^rodTsc1^−/− mice", "test": "Retinal lipid profiling after DHA feeding", "settings": "^rodTsc1^−/− mice (loss of TSC1), after 10 weeks of DHA feeding"}, "^rodTsc1^−/− mice [5]": {"test_system": "^rodTsc1^−/− mice", "test": "Funduscopy of AMD-like pathologies (fundus pathologies, GA) in mice fed DHA diet"}},
  "note": "“Also recorded” adds a separate entry of the source. For at least one compound, name, drawing or mass did not settle the structure.",
  "data": [
    {"compound": "CC/C=C\\C/C=C\\C/C=C\\C/C=C\\C/C=C\\C/C=C\\CCC(=O)O", "note": "[DHA, Docosahexaenoic acid]", "values": [
      {"measurement": "C3 expression", "setting": "^rodTsc1^−/− mice [1]", "result": "restored"},
      {"measurement": "accumulation of ApoB", "setting": "^rodTsc1^−/− mice [1]", "result": "prevented"},
      {"measurement": "accumulation of ApoE", "setting": "^rodTsc1^−/− mice [1]", "result": "prevented"},
      {"measurement": "accumulation of CFH", "setting": "^rodTsc1^−/− mice [1]", "result": "prevented"},
      {"measurement": "Differences in RPE hypertrophy", "setting": "^rodTsc1^−/− mice [2]", "result": "not evident"},
      {"measurement": "percentage of polynucleated RPE cells", "setting": "^rodTsc1^−/− mice [2]", "result": "reduced"},
      {"measurement": "POS clearance (improvement once the delay has occurred)", "setting": "^rodTsc1^−/− mice [3]; 6M old ^rodTsc1^−/− mice fed the DHA enriched diet for 2 weeks", "result": "even more pronounced effect"},
      {"measurement": "POS clearance", "setting": "^rodTsc1^−/− mice [3]; ^rodTsc1^−/− mice, 2% DHA enriched diet from weaning onwards, at 2M", "result": "improved"},
      {"measurement": "retinal di-DHA levels of PE and PC lipids", "setting": "control wild-type mice", "result": "increased"},
      {"measurement": "levels of di-DHA containing PE and PC lipids in retina", "setting": "^rodTsc1^−/− mice [4]", "result": "not restored; also recorded: did not increase"},
      {"measurement": "fundus pathologies", "setting": "^rodTsc1^−/− mice [5]; ^rodTsc1^−/− mice, DHA diet from weaning onwards until 6M", "result": "improved"},
      {"measurement": "mice that developed any GA by 6M", "setting": "^rodTsc1^−/− mice [5]; ^rodTsc1^−/− mice, DHA-fed (n=12), control diet 1 out of 6", "result": "None of 12"},
      {"measurement": "disease progression", "setting": "^rodTsc1^−/− mice [5]; feeding mice a DHA enriched diet", "result": "prevents"},
      {"measurement": "pathologies", "setting": "^rodTsc1^−/− mice [5]; mice with loss of TSC1, following DHA feeding", "result": "significantly alleviated"}
    ]}
  ]
}
